From publication PMC13448985
Results are given in words; binding and its absence hold for the method and conditions named. Binding seen in cells or lysates may run through a third protein. Some binding calls cover weakened binding; strength is not graded here.

By UniProt entry, the sequences of proteins in these tests, tags left out.
UniProt Q8K4Q0: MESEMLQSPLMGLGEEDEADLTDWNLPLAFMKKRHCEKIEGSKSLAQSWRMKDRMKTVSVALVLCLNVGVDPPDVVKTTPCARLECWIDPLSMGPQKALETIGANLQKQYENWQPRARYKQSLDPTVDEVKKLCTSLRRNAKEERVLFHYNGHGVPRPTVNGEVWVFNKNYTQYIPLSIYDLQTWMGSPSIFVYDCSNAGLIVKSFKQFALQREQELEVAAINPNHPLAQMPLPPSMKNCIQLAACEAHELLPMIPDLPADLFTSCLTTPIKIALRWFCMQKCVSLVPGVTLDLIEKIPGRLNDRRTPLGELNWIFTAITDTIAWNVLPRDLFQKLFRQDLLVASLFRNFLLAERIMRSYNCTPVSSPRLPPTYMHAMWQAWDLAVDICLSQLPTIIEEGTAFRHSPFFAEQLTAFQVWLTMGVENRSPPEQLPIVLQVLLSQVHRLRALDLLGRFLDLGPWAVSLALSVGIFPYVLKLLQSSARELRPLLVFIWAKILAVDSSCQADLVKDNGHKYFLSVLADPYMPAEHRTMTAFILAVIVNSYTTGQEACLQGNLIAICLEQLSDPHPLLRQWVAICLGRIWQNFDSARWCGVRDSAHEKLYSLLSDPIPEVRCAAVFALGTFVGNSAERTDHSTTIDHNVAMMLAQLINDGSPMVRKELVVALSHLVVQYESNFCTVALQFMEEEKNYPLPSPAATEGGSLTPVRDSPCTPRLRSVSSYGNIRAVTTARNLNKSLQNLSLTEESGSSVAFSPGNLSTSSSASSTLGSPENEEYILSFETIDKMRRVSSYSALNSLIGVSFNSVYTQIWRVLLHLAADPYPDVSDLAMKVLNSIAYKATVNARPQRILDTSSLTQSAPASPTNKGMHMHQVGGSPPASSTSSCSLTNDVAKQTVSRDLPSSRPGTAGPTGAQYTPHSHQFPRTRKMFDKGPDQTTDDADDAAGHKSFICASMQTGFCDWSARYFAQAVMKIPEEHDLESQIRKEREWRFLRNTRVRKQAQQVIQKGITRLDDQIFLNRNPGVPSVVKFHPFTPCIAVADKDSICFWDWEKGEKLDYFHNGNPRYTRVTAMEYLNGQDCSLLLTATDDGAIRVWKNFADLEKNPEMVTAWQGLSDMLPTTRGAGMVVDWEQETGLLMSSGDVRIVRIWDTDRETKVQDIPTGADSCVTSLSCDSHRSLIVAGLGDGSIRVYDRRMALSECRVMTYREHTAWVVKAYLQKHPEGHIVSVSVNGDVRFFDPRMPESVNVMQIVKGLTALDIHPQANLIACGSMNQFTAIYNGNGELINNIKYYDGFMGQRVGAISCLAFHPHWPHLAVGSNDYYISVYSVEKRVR

Target: T1, natriuretic peptide receptor 3 (NPR3) (mouse (endogenous in primary VSMCs of C57BL/6J mice)) (UniProt P70180)
T1 sequence: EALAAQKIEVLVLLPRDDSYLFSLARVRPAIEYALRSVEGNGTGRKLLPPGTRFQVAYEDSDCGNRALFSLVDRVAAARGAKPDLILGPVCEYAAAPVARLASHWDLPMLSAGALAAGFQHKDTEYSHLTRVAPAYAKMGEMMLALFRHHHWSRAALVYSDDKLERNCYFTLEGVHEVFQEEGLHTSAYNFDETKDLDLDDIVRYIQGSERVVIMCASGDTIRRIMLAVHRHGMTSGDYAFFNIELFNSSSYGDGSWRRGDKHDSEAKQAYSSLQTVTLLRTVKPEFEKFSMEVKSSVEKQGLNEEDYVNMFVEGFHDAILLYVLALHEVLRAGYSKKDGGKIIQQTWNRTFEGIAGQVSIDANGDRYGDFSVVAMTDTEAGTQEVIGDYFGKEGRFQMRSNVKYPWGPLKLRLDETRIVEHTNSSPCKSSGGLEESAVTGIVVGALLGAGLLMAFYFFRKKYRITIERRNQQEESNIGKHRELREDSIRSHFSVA
Assay: co-IP; lysates of primary mouse VSMCs stimulated with PDGF-BB (30 ng/mL), treated with or without Musclin (50 nM, 24 h), with or without Npr3 siRNA; IP and input blotted with anti-NPR3 and anti-raptor antibodies; which antibody precipitated is not stated

binding: binds
Substance: raptor (from UniProt Q8K4Q0 1-1335)
